3 compounds from patent US20070054899A1 (priority 2003, published 2007) can be followed below.

In the test the target is T1, aromatase (microsomes from the human placenta) (Homo sapiens, UniProt P11511).
T1 construct: using microsomes from the human placenta as source of the enzyme; from tissue; host or cells: human placenta microsomes
T1 sequence (P11511 1-503): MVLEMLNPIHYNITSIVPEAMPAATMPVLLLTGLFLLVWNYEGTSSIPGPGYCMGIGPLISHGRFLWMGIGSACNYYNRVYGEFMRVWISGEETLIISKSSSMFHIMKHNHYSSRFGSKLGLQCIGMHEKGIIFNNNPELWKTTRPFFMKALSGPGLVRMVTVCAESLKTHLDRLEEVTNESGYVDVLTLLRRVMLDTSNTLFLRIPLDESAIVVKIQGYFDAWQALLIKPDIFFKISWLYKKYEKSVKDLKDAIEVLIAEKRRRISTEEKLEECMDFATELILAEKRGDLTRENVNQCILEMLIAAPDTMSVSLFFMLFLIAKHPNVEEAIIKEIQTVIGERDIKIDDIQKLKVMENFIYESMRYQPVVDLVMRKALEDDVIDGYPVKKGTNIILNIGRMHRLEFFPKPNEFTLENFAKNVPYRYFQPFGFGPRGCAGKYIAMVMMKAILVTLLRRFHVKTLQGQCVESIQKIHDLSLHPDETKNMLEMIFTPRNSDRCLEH
Put plainly: Aromatase inhibition in vitro, tritiated water method, human placenta microsomes. The format is biochemical. The following applies: value marked (h).
Usually IC50 stands for the concentration needed to halve the response being measured. Low values mean greater potency in that assay, high ones weaker potency in that assay. Compound `Cn1c(=O)sc2cc(C(c3ccccc3)n3ccnc3)ccc21` (racemic) [(+/−)PCH28, 6-[1H-Imidazol-1-yl(phenyl)methyl]-3-methyl-1,3-benzothiazol-2(3H)-one] gave an IC50 of 12.1 nM.
`Cn1c(=O)sc2cc(C(c3ccccc3)n3ccnc3)ccc21` (racemic) [(E1)PCH28] had an IC50 of 24.4 nM.
The result for `Cn1c(=O)sc2cc(C(c3ccccc3)n3ccnc3)ccc21` (racemic) [(E2) PCH28] reads 26.4 nM.
